Results as given in patent US20190382493A1.
No constants are given. Whether binding was seen depends on the method and setting. Some entries that bind do so weakly or less than the wild type.

Amino acid sequences for entries named in this document (tags omitted). A change or cut given only in a name is not applied to a line headed by its entry. Chains listed by the source or under a name are the forms on record and can include a tag or linker. Residues count along the entry.
UniProt Q9NZQ7, residues 19-239: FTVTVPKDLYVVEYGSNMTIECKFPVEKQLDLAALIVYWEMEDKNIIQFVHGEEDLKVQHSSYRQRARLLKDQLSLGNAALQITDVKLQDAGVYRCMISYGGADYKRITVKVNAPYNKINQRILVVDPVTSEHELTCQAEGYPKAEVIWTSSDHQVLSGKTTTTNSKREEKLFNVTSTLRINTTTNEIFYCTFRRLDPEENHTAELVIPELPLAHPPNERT
UniProt Q9EP73: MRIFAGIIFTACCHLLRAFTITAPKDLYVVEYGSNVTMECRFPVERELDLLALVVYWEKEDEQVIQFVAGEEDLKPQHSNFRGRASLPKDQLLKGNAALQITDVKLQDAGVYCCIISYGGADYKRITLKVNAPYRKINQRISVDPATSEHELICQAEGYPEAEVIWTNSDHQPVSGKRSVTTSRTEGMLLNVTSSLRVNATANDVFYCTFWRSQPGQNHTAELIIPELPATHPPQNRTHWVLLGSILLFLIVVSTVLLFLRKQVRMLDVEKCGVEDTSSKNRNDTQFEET
cynomolgus monkey (cyno) PDL1-Fc (Sino biological) (G7PSE7, form named): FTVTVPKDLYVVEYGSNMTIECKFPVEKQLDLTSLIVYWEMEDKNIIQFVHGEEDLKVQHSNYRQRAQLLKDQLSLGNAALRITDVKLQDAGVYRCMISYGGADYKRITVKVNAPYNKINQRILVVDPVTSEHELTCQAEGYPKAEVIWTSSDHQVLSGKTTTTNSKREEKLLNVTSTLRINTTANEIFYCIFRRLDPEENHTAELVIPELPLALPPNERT

Assays:
[1] = molecular target: human PDL1-Fc (R & D Systems) (human) (UniProt Q9NZQ7); experiment: Fab-phage ELISA, antigen adsorbed
[2] = molecular target: mouse PDL1 (R&D Systems) (mouse) (UniProt Q9EP73); experiment: Fab-phage ELISA, antigen adsorbed
[3] = molecular target: cynomolgus monkey (cyno) PDL1-Fc (Sino biological) (cynomolgus monkey) (UniProt G7PSE7); experiment: ELISA (figure legend)
[4] = molecular target: cynomolgus monkey (cyno) PDL1-Fc (Sino biological) (cynomolgus monkey) (UniProt G7PSE7); experiment: ELISA, PDL1-Fc adsorbed, anti-human IgG (Fab specific)-HRP

Binder	binding [1]	other results
PDL1 A05 Fab-phage (Fab, V domains shown) VH: EVQLLESGGGLVQPGGSLRLSCAASGFTFSSYAMSWVRQAPGKGLEWVSSIWKQGIVTVYDSVKGRFTISRDNSKNTLYLQMNSLRAEDTAVYYCAKSSAGFDYWGQGTLVTV VL: DIQMTQSPSSLSASVGDRVTITCRASQSISSYLNWYQQKPGKAPKLLIYYASTLQSGVPSRFSGSGSGTDFTLTISSLQPEDFATYYCQQDNGYPSTFGQGTKVEIKR	binds	
PDL1 H06 Fab-phage (Fab, V domains shown) VH: EVQLLESGGGLVQPGGSLRLSCAASGFTFSSYAMSWVRQAPGKGLEWVSSIWRQGLATAYDSVKGRFTISRDNSKNTLYLQMNSLRAEDTAVYYCAKSSAGFDYWGQGTLVTVSS VL: DIQMTQSPSSLSASVGDRVTITCRASQSISSYLNWYQQKPGKAPKLLIYYASTLQSGVPSRFSGSGSGTDFTLTISSLQPEDFATYYCQQDNGYPSTFGQGTKVEIKR	binds	
PDL1 C05 Fab-phage (Fab, V domains shown) VH: EVQLLESGGGLVQPGGSLRLSCAASGFTFSSYAMSWVRQAPGKGLEWVSSIWRNGIVTVYDSVKGRFTISRDNSKNTLYLQMNSLRAEDTAVYYCAKSSAGFDYWGQGTLVTVSS VL: DIQMTQSPSSLSASVGDRVTITCRASQSISSYLNWYQQKPGKAPKLLIYYASTLQSGVPSRFSGSGSGTDFTLTISSLQPEDFATYYCQQDNGYPSTFGQGTKVEIKR	binds	binding [2]: binds
PDL1 G12 Fab-phage (Fab, V domains shown) VH: EVQLLESGGGLVQPGGSLRLSCAASGFTFSSYAMSWVRQAPGKGLEWVSSIWYQGLVTVYDSVKGRFTISRDNSKNTLYLQMNSLRAEDTAVYYCAKSSAGFDYWGQGTLVTVSS VL: DIQMTQSPSSLSASVGDRVTITCRASQSISSYLNWYQQKPGKAPKLLIYYASTLQSGVPSRFSGSGSGTDFTLTISSLQPEDFATYYCQQDNGYPSTFGQGTKVEIKR	binds	binding [2]: binds
PDL1 D01 Fab-phage (Fab, V domains shown) VH: EVQLLESGGGLVQPGGSLRLSCAASGFTFSSYAMSWVRQAPGKGLEWVSSIWKQGIVTVYDSVKGRFTISRDNSKNTLYLQMNSLRAEDTAVYYCAKSSAGFDYWGQGTLVTVSS VL: DIQMTQSPSSLSASVGDRVTITCRASQSISSYLNWYQQKPGKAPKLLIYYASTLQSGVPSRFSGSGSGTDFTLTISSLQPEDFATYYCQQDNGYPSTFGQGTKVEIKR	binds	
PDL1 G10 Fab-phage (Fab, V domains shown) VH: EVQLLESGGGLVQPGGSLRLSCAASGFTFSSYAMSWVRQAPGKGLEWVSSIGRQGLITVYDSVKGRFTISRDNSKNTLYLQMNSLRAEDTAVYYCAKSSAGFDYWGQGTLVTVSS VL: DIQMTQSPSSLSASVGDRVTITCRASQSISSYLNWYQQKPGKAPKLLIYYASTLQSGVPSRFSGSGSGTDFTLTISSLQPEDFATYYCQQDNGYPSTFGQGTKVEIKR	binds	
PDL1 D08 Fab-phage (Fab, V domains shown) VH: EVQLLESGGGLVQPGGSLRLSCAASGFTFSSYAMSWVRQAPGKGLEWVSSIWRQGLATAYDSVKGRFTISRDNSKNTLYLQMNSLRAEDTAVYYCAKSSAGFDYWGQGTLVTVSS VL: DIQMTQSPSSLSASVGDRVTITCRASQSISSYLNWYQQKPGKAPKLLIYYASTLQSGVPSRFSGSGSGTDFTLTISSLQPEDFATYYCQQDNGYPSTFGQGTKVEIKR	binds	
PDL1 C10 Fab-phage (Fab, V domains shown) VH: EVQLLESGGGLVQPGGSLRLSCAASGFTFSSYAMSWVRQAPGKGLEWVSDIWKQGMVTVYDSVKGRFTISRDNSKNTLYLQMNSLRAEDTAVYYCAKSSAGFDYWGQGTLVTVSS VL: DIQMTQSPSSLSASVGDRVTITCRASQSISSYLNWYQQKPGKAPKLLIYYASTLQSGVPSRFSGSGSGTDFTLTISSLQPEDFATYYCQQDNGYPSTFGQGTKVEIKR	binds	
PDL1 G09 Fab-phage (Fab, V domains shown) VH: EVQLLESGGGLVQPGGSLRLSCAASGFTFSSYAMSWVRQAPGKGLEWVSEIVATGILTSYDSVKGRFTISRDNSKNTLYLQMNSLRAEDTAVYYCAKSSAGFDYWGQGTLVTVSS VL: DIQMTQSPSSLSASVGDRVTITCRASQSISSYLNWYQQKPGKAPKLLIYYASTLQSGVPSRFSGSGSGTDFTLTISSLQPEDFATYYCQQDNGYPSTFGQGTKVEIKR	binds	
anti-PDL1 antibody C5H9v2 (antibody, V domains shown) VH: EVQLLESGGGLVQPGGSLRLSCAASGFTFSSYAMSWVRQAPGKGLEWVSSIWRNGIVTVYADSVKGRFTISRDNSKNTLYLQMNSLRAEDTAVYYCAKWSAAFDYWGQGTLVTVSS VL: DIQMTQSPSSLSASVGDRVTITCRASQSISSYLNWYQQKPGKAPKLLIYAASSLQSGVPSRFSGSGSGTDFTLTISSLQPEDFATYYCQQDNGYPSTFGGGTKVEIKR		binding [3]: binds; binding [4]: binds
PDL1 E11 Fab-phage (Fab, V domains shown) VH: EVQLLESGGGLVQPGGSLRLSCAASGFTFSSYAMSWVRQAPGKGLEWVSDIWKQGFATADSVKGRFTISRDNSKNTLYLQMNSLRAEDTAVYYCAKSSAGFDYWGQGTLVTVSS VL: DIQMTQSPSSLSASVGDRVTITCRASQSISSYLNWYQQKPGKAPKLLIYYASTLQSGVPSRFSGSGSGTDFTLTISSLQPEDFATYYCQQDNGYPSTFGQGTKVEIKR	binds	
anti-PDL1 antibody C5H9 (antibody, V domains shown) VH: EVQLLESGGGLVQPGGSLRLSCAASGFTFSSYAMSWVRQAPGKGLEWVSSIWRNGIVTVYADSVKGRFTISRDNSKNTLYLQMNSLRAEDTAVYYCAKWSAAFDYWGQGTLVTVSS VL: DIQMTQSPSSLSASVGDRVTITCRASQSISSYLNWYQQKPGKAPKLLIYYASTLQSGVPSRFSGSGSGTDFTLTISSLQPEDFATYYCQQDNGYPSTFGQGTKVEIKR		binding [3]: binds; binding [4]: binds
